Values joined by “and” are separate entries in the source; they are usually repeats but may differ in a detail not shown here. Identical values can stand only once.
Tested on: MCF-7 cells
Assay: Flow cytometry (fluorometry-calibrated) of DOX uptake and X-ray triggered release in cells
Assay type: cell-based
Settings: 12 hours incubation, 100 nM DOX

In the case of `COc1cccc2c1C(=O)c1c(O)c3c(c(O)c1C2=O)C[C@@](O)(C(=O)CO)C[C@@H]3O[C@H]1C[C@H](N)[C@H](O)[C@H](C)O1` [DOX, doxorubicin], the “DOX uptake, average number per cell” value is reported as ~24 million per cell and 24 ± 2.5 million per cell.

From patent US9993553B2, “Methods and compositions for targeted release of molecules from nanoscale carriers” (The Regents of the University of California, priority 2013, dated 2018)
